Values of other authors in patent US20220326219A1, “METHODS AND DEVICE FOR THE ANALYSIS OF TISSUE SAMPLES” (PRECOMB THERAPEUTICS AG, priority 2019, published 2022).
At least one structure is not confirmed: it was looked up by name or label, or the drawing left a doubt.

System: living, perfused microvessels (vasculature) of in vitro vascularized microtumors
Settings: VMT platform, Sobrino et al. 2016; cited from earlier work

SMILES | effect on vasculature of vascularized microtumors
COc1cc2nccc(Oc3ccc(NC(=O)C4(C(=O)Nc5ccc(F)cc5)CC4)cc3)c2cc1OC [Cabozantinib] | do regress the vasculature
Cc1ccc(F)c(NC(=O)Nc2ccc(-c3cccc4[nH]nc(N)c34)cc2)c1 [Linifanib] | do regress the vasculature
COc1cc2c(Nc3ccc(Br)cc3F)ncnc2cc1OCC1CCN(C)CC1 [Vandetanib] | not effective
